Results from US20250009750A1, “METHODS OF TREATING DISORDERS ASSOCIATED WITH EYA OVEREXPRESSION AND MUTATIONS” (The Board of Regents of the University of Texas System, priority 2023, published 2025).

What was measured:
cy5-labeled ssDNA = assay: Microscale thermophoresis (MST) DNA binding, ssDNA
Procedure: (§1) A total of 12 concentrations of ligand proteins (e.g., EYA (1-365)) were serially diluted by 1:1 using MST buffer from 5 uM to 2.4 nM, 10 ul of each dose of ligand protein was mixed with 10 ul of cy5-labeled dsDNA/ssDNA supernatant. The mixture of EYA and DNA was loaded into premium capillaries for MST assay with parameters set up at auto-detected excitation power and medium MST power. Binding affinity was analyzed by MO. Affinity Analysis software (version 2.1.3, NanoTemper Technologies) using the signal from an MST-on time of 20 s. Three individual experiments were merged to generate standard deviation.
(§2) Cy5-labeled oligo P1 (T. T. Paull Curr Opin Genet Dev 71, 55-62 (2021)). from IDT ([…]-[…]; SEQ ID NO:1) was used as the ssDNA substrate. dsDNA was generated by annealing Cy5-labeled oligo P1 with its exact complement P2 […]-AAATAAGTAAAAG […] (SEQ ID NO:2). The annealed product was purified by SDS-PAGE then concentrated and quantified. For the long system assays, substrates were sourced from NEB. The ssDNA is the ϕX174 virion DNA and the dsDNA its replicative form ϕX174 RF I DNA.

cy5-labeled dsDNA = assay: Microscale thermophoresis (MST) DNA binding, dsDNA
Procedure: as §1, §2

[1] = RAD51 proteins binding ssDNA, Table 5
[2] = EYA4 constructs binding ssDNA, Table 4
[3] = EYA4 constructs binding dsDNA, Table 4

B1: YF, YF: double-mutant RAD51 (Y54F, Y315F) that cannot be phosphorylated (protein, UniProt Q06609 2-339, looked up, variant Y54F Y315F)
DNA repair protein RAD51 …: AMQMQLEANADTSVEEESFGPQPISRLEQCGINANDVKKLEEAGFHTVEAVAFAPKKELINIKGISEAKADKILAEAAKLVPMGFTTATEFHQRRSEIIQITTGSKELDKLLQGGIETGSITEMFGEFRTGKTQICHTLAVTCQLPIDRGGGEGKAMYIDTEGTFRPERLLAVAERYGLSGSDVLDNVAYARAFNTDHQTQLLYQASAMMVESRYALLIVDSATALYRTDYSGRGELSARQMHLARFLRMLLRLADEFGVAVVITNQVVAQVDGAAMFAADPKKPIGGNIIAHASTTRLYLRKGRGETRICKIFDSPCLPEAEAMFAINADGVGDAKD
- Hill Coeff. (cy5-labeled ssDNA; [1]): 3.312
- Hill Coeff. (cy5-labeled dsDNA; RAD51 proteins binding dsDNA): 7.07

B2: YD, YD: double phospho-mimetic RAD51 (Y54D, Y315D) (protein, UniProt Q06609 2-339, looked up, variant Y54D Y315D)
DNA repair protein RAD51 …: AMQMQLEANADTSVEEESFGPQPISRLEQCGINANDVKKLEEAGFHTVEAVADAPKKELINIKGISEAKADKILAEAAKLVPMGFTTATEFHQRRSEIIQITTGSKELDKLLQGGIETGSITEMFGEFRTGKTQICHTLAVTCQLPIDRGGGEGKAMYIDTEGTFRPERLLAVAERYGLSGSDVLDNVAYARAFNTDHQTQLLYQASAMMVESRYALLIVDSATALYRTDYSGRGELSARQMHLARFLRMLLRLADEFGVAVVITNQVVAQVDGAAMFAADPKKPIGGNIIAHASTTRLYLRKGRGETRICKIDDSPCLPEAEAMFAINADGVGDAKD
- Hill Coeff. (cy5-labeled dsDNA; RAD51 proteins binding dsDNA): 2.6695

B3: WT: purified wild type RAD51 (protein, UniProt Q06609 2-339, looked up)
DNA repair protein RAD51 …: AMQMQLEANADTSVEEESFGPQPISRLEQCGINANDVKKLEEAGFHTVEAVAYAPKKELINIKGISEAKADKILAEAAKLVPMGFTTATEFHQRRSEIIQITTGSKELDKLLQGGIETGSITEMFGEFRTGKTQICHTLAVTCQLPIDRGGGEGKAMYIDTEGTFRPERLLAVAERYGLSGSDVLDNVAYARAFNTDHQTQLLYQASAMMVESRYALLIVDSATALYRTDYSGRGELSARQMHLARFLRMLLRLADEFGVAVVITNQVVAQVDGAAMFAADPKKPIGGNIIAHASTTRLYLRKGRGETRICKIYDSPCLPEAEAMFAINADGVGDAKD
- Hill Coeff. (cy5-labeled ssDNA; [1]): 2.662
- Hill Coeff. (cy5-labeled dsDNA; RAD51 proteins binding dsDNA): 2.2959

B4: 1-365: N-terminally m-cherry-tagged EYA4 (aa 1-365), purified (protein, UniProt O95677 1-365, looked up, fragment)
chain: MEDSQDLNEQSVKKTCTESDVSQSQNSRSMEMQDLASPHTLVGGGDTPGSSKLEKSNLSSTSVTTNGTGGENMTVLNTADWLLSCNTPSSATMSLLAVKTEPLNSSETTATTGDGALDTFTGSVITSSGYSPRSAHQYSPQLYPSKPYPHILSTPAAQTMSAYAGQTQYSGMQQPAVYTAYSQTGQPYSLPTYDLGVMLPAIKTESGLSQTQSPLQSGCLSYSPGFSTPQPGQTPYSYQMPGSSFAPSSTIYANNSVSNSTNFSGSQQDYPSYTAFGQNQYAQYYSASTYGAYMTSNNTADGTPSSTSTYQLQESLPGLTNQPGEFDTMQSPSTPIKDLDERTCRSSGSKSRGRGRKNNPSPPPD
modifications: N-terminal mCherry tag
notes: N-terminally m-cherry-tagged EYA4 (aa 1-365), purified
- Hill Coeff. (cy5-labeled ssDNA; [2]): 1.6539
- Hill Coeff. (cy5-labeled dsDNA; [3]): 1.6489

B5: SQTQ: phosphomimetic EYA4 double mutant in the ATM-ATR consensus site SQTQ (S209D, T211D) (protein, UniProt O95677 1-639, looked up, variant S209D T211D)
Protein phosphatase EYA4: MEDSQDLNEQSVKKTCTESDVSQSQNSRSMEMQDLASPHTLVGGGDTPGSSKLEKSNLSSTSVTTNGTGGENMTVLNTADWLLSCNTPSSATMSLLAVKTEPLNSSETTATTGDGALDTFTGSVITSSGYSPRSAHQYSPQLYPSKPYPHILSTPAAQTMSAYAGQTQYSGMQQPAVYTAYSQTGQPYSLPTYDLGVMLPAIKTESGLDQDQSPLQSGCLSYSPGFSTPQPGQTPYSYQMPGSSFAPSSTIYANNSVSNSTNFSGSQQDYPSYTAFGQNQYAQYYSASTYGAYMTSNNTADGTPSSTSTYQLQESLPGLTNQPGEFDTMQSPSTPIKDLDERTCRSSGSKSRGRGRKNNPSPPPDSDLERVFVWDLDETIIVFHSLLTGSYAQKYGKDPPMAVTLGLRMEEMIFNLADTHLFFNDLEECDQVHIDDVSSDDNGQDLSTYSFATDGFHAAASSANLCLPTGVRGGVDWMRKLAFRYRRVKELYNTYKNNVGGLLGPAKRDAWLQLRAEIEGLTDSWLTNALKSLSIISTRSNCINVLVTTTQLIPALAKVLLYSLGGAFPIENIYSATKIGKESCFERIMQRFGRKVVYVVIGDGVEEEQAAKKHNMPFWRISSHSDLLALHQALELEYL
- Hill Coeff. (cy5-labeled ssDNA; [2]): 2.662
- Hill Coeff. (cy5-labeled dsDNA; [3]): 2.6104
